Assay results taken from PubChem BioAssay AID488922 (Johns Hopkins Ion Channel Center, 2010).
This is one part of the list.

assay: KCNK9 potassium channel inhibitors, primary screen, HEK293 cells, thallium flux (AID 488922); conditions: HEK293 KCNK9, FluxOR thallium flux fluorescence; initial fluorescence intensity artifact flag; at 10 µM;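 also: negative B-score means less thallium flux so channel inhibition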

SMILES | B-score
CC(C)(C)OC(=O)N1CCC(N(C(=O)c2ccccc2)c2ccc(Cl)cc2)CC1 | -1.24
COc1cccc(C(=O)N(c2cc(C)cc(C)c2)C2CCN(C(=O)OC(C)(C)C)CC2)c1 | -2.43
CC(C)(C)OC(=O)N1CCC(N(C(=O)c2ccccc2)c2ccc(F)cc2)CC1 | 0.029
Cc1cc(C)cc(N(C(=O)c2ccccc2)C2CCN(C(=O)OC(C)(C)C)CC2)c1 | -1.26
